Laboratory results from article PMC7819943, “Rice protein-binding microarrays: a tool to detect cis-acting elements near promoter regions in rice”.
Some of the results follow.

By UniProt entry, the sequences of proteins in these tests, tags left out.
UniProt Q0JBA9, entry or part of it: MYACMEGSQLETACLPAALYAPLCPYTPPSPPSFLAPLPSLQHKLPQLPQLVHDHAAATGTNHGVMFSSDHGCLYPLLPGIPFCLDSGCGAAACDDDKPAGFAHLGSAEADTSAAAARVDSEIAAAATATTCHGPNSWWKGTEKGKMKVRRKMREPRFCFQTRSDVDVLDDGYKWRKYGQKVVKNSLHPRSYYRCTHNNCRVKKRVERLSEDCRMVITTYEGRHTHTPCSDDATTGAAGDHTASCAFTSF

target: OsWRKY34 (Oryza sativa, UniProt Q0JBA9 1-250); assay: protein-binding microarray (RPBM); PBS, 2% BSA, 51.3 ng/ul salmon testes DNA, 50 uM zinc acetate, 200 nM TF, 25 C, 1 h; high values mean tight binding; conditions: protein: recombinant; tags: N-terminal polyhistidine and DsRed monomer fusion (pET32a); label: CyDye5-dUTP incorporated in the synthesized complementary strand; 3' TTTTT single-stranded linker to array surface; dsDNA, one strand shown
How it was run: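 Using Ni–NTA, transcription factors fused N-terminally to polyhistidine and DsRed were purified after expression in E. coli BL21-CodonPlus. These were incubated at 200 nM with a blocked, double-stranded custom Agilent array for 1 h at 25 °C in a buffer containing 50 µM zinc acetate, and the array was washed. The binding signal is per-feature fluorescence intensity (arbitrary units) on an Axon 4000B scanner.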

Sequence | binding signal
CCTTTGTCGTTTCCATATAGAACTCTGGTTGTCTTTCTTTCGGAGTCACCTAGTGCAG | 11600 fluorescence intensity (a.u.)
TCACTTTGACCATTAATATTTTTAAACTACAATGTCTCTACGGAGTCACCTAGTGCAG | 8220 fluorescence intensity (a.u.)
TTCTTCACACACACACACGGCCTCGTGGCTTCGCGACTCCCGGAGTCACCTAGTGCAG | 9340 fluorescence intensity (a.u.)
AGCCATCTATCACCATGGCTGAAGCCATGTTATATATATCCGGAGTCACCTAGTGCAG | 8560 fluorescence intensity (a.u.)
CCCTTTCACATGTCACCTCTGACCCACAAACAAACCCTTTCGGAGTCACCTAGTGCAG | 8210 fluorescence intensity (a.u.)
CCCTGTAAACATCACCTACTTTGATCTCTCAAATAATTCTCGGAGTCACCTAGTGCAG | 9180 fluorescence intensity (a.u.)
ACATGTTTTTTTTTTCTCGAACATTTTTCGCCGCTGTTTTCGGAGTCACCTAGTGCAG | 11000 fluorescence intensity (a.u.)
AAAGTCAGGGTGAGTGATGTCTGGTTTTTAGCTTCAGGGGCGGAGTCACCTAGTGCAG | 8040 fluorescence intensity (a.u.)
CGTCGGTTACCTTCCGTTCCGTTGCCTCTCTCTCTCTCTCCGGAGTCACCTAGTGCAG | 9010 fluorescence intensity (a.u.)
CCACCCCACCTTTCTTCCGCATCCTACCCGGTTCGTTTTTCGGAGTCACCTAGTGCAG | 12200 fluorescence intensity (a.u.)
TTCTCCCACTGTCATCTTCGGCATATCCTTCTCATTGTCTCGGAGTCACCTAGTGCAG | 10800 fluorescence intensity (a.u.)
TTCAGTTTTTTACATTTTTATGTGAATTTGGTCAAATTTTCGGAGTCACCTAGTGCAG | 8990 fluorescence intensity (a.u.)
TGCCTCCCTCGCCATCCGCGCGGCCGTCTTCCCCAACAGCCGGAGTCACCTAGTGCAG | 8230 fluorescence intensity (a.u.)
GGGTGGGTGATTCTTCTTCGAGGAGCTTCTTCTTGGAGCTCGGAGTCACCTAGTGCAG | 11800 fluorescence intensity (a.u.)
GTCTCGTGGCACCTCAATTTATTAATCACTACCCCTATACCGGAGTCACCTAGTGCAG | 8710 fluorescence intensity (a.u.)
CATGTTCACCTCCATCTGCTGTCTTAAGTTTGACTTGATCCGGAGTCACCTAGTGCAG | 9950 fluorescence intensity (a.u.)
ATTTACTCTTAATGTTTTGGATATTTTTTTTTCTCTTTCTCGGAGTCACCTAGTGCAG | 10500 fluorescence intensity (a.u.)
TAATAAGACGAACGGTTAAACATGTGTTAAAAAGTCAACGCGGAGTCACCTAGTGCAG | 12500 fluorescence intensity (a.u.)
GATGCACGTCTACACTTTCCCAACTCATATCTCTCGTTTTCGGAGTCACCTAGTGCAG | 9120 fluorescence intensity (a.u.)
AATACTTAATTAATCACGCGCTAATCGCTGCTCCGTTTTTCGGAGTCACCTAGTGCAG | 8460 fluorescence intensity (a.u.)
TTAAAACTCAATTAATCACACGTTATTACCACCTCGTTTTCGGAGTCACCTAGTGCAG | 9610 fluorescence intensity (a.u.)

3 neighbouring records from above, quoted:
Sequence | binding signal
ACATGTTTTTTTTTTCTCGAACATTTTTCGCCGCTGTTTTCGGAGTCACCTAGTGCAG | 11000 fluorescence intensity (a.u.)
AAAGTCAGGGTGAGTGATGTCTGGTTTTTAGCTTCAGGGGCGGAGTCACCTAGTGCAG | 8040 fluorescence intensity (a.u.)
CGTCGGTTACCTTCCGTTCCGTTGCCTCTCTCTCTCTCTCCGGAGTCACCTAGTGCAG | 9010 fluorescence intensity (a.u.)

More results follow:

Sequence | binding signal
ACTGGCTGCTTCTGTAACCCTGGCGCTTGTGCTAAGTATCCGGAGTCACCTAGTGCAG | 9640 fluorescence intensity (a.u.)
CACCTCTTCACACAAACTGTATATGCTGTCTTTTACTTGACGGAGTCACCTAGTGCAG | 9140 fluorescence intensity (a.u.)
GTGCAGCCGTGGATATCCGTGCCCAACGTTTGACCGTCCGCGGAGTCACCTAGTGCAG | 9290 fluorescence intensity (a.u.)
TTTTTTGTCGGACTTTTTTCTTCATTTTTTACCTCTTTTGCGGAGTCACCTAGTGCAG | 16900 fluorescence intensity (a.u.)
ATTTTGTCGTTGGCGTGTAATTTTCCGATCATCACAGTATCGGAGTCACCTAGTGCAG | 9560 fluorescence intensity (a.u.)
TCATAATTTGAATTCTTCTGCGCAAATTTGTTGCCGCACTCGGAGTCACCTAGTGCAG | 8890 fluorescence intensity (a.u.)
GGGGCGCTGACACTGCAACAATAATTTTTCTGTTTCCAACCGGAGTCACCTAGTGCAG | 8110 fluorescence intensity (a.u.)
GCCGTCCCCGTCGCCGTGCATCAGATCATTTCATCACCGGCGGAGTCACCTAGTGCAG | 10600 fluorescence intensity (a.u.)
CATTCTCCGCTCCTTCCGTTCCATTCCATCTCCGGTCTGACGGAGTCACCTAGTGCAG | 8990 fluorescence intensity (a.u.)
CAGATCCGGCAGAGGCGGGAGGGGAGGCGCAGGGGCGACGCGGAGTCACCTAGTGCAG | 9470 fluorescence intensity (a.u.)
TTTTTCTGGGTGGTGTCAAATTCAGAAGGCGTCCCAAACTCGGAGTCACCTAGTGCAG | 8220 fluorescence intensity (a.u.)
AGTCAAATCGCTTTCACTAACACTAGTTTATTACCATATTCGGAGTCACCTAGTGCAG | 8460 fluorescence intensity (a.u.)
ATAGTTTGTTTTTAAATGCATATTTTTCGCGATTTCCAAACGGAGTCACCTAGTGCAG | 9450 fluorescence intensity (a.u.)
GACACCCTGCATGGCATTCGCACGCCATTGACACATATCTCGGAGTCACCTAGTGCAG | 8450 fluorescence intensity (a.u.)
TGGTCTGCATGTTTATTATCTAGGTTTTTCATTCTTCTTTCGGAGTCACCTAGTGCAG | 11700 fluorescence intensity (a.u.)
TGGTGGTGGCTGTCTCCTTTCCATCCTGTCGCGCACAGCACGGAGTCACCTAGTGCAG | 9200 fluorescence intensity (a.u.)
TATACCTCTCTCTCTCTCTCTCTCTCTCTCTCTCTCTCTTCGGAGTCACCTAGTGCAG | 8280 fluorescence intensity (a.u.)
ATGTAGTTTGCAATAGTTTGATGGAAATATTATCCTATTACGGAGTCACCTAGTGCAG | 8440 fluorescence intensity (a.u.)
TACACCGTCCCAACCGGCTTTGTTTGACTTGTCCGACCAGCGGAGTCACCTAGTGCAG | 8330 fluorescence intensity (a.u.)
CCCGTGGATTTGCCACCGTTTAACCGCGCCCTCTTTGAACCGGAGTCACCTAGTGCAG | 8430 fluorescence intensity (a.u.)
CTGTTTCATATTACATGTACCTTTGACTTTTTAAGTTTGACGGAGTCACCTAGTGCAG | 13200 fluorescence intensity (a.u.)
